Screening data, single-dose tests

Source: ChEMBL document CHEMBL3988442, “University of Dundee, Small-Polar-MMV Screening Library” (2021).

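Whole-parasite assay of Trypanosoma brucei over 72 hours; the read-out is not stated. Concentration: 30 µM. The record gives no direction; compounds that gave an IC50 in retests scored well above the rest, so higher reads as stronger inhibition. Values scatter widely below zero; nearly all retest evidence comes from the higher of the two concentrations used. Of about 64,000 compounds tested this way, about 940 (1.5%) reached 50% or more in at least one test.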

Results are given as percent effect.
The record does not define 0% and 100%; most values in the screen are far below 50% and negative numbers occur (in some assays of this library far below -100).
Compounds were drawn at random from those tested, without regard to their results.

| # | structure | Percent Effect |
|---|---|---|
| 1 | `CNC(=O)c1sc2ccccc2c1CC1CCCCN1Cc1ncc[nH]1` (stereo not drawn) | 26.09 |
| 2 | `CC(C)c1nn(C)c(N(C)C)c1CNCC(O)COc1ccccc1` (stereo not drawn) | 4.272 |
| 3 | `CCNC(=O)[C@@H]1C[C@@H](N)CN1C(=O)CCc1ccc(C)c(C)c1` | -4.568 |
| 4 | `CC(C)N1CCc2nnc(COc3cncnc3)n2CC1.O=C(O)C(F)(F)F` | 32.19 |
| 5 | `Cc1ccc(NC(C)C(=O)N(C)Cc2cccc(F)c2)cc1C(N)=O` (stereo not drawn) | -26.47 |
| 6 | `CCN(CC)C1CCN(C(=O)NCc2cccc(NC(C)=O)c2)C1` (stereo not drawn) | -5.284 |
| 7 | `COc1ccc(C)cc1CCNS(=O)(=O)c1ccc2c(c1)CCC(=O)N2` | -47.2 |
| 8 | `CCc1noc(CNc2cccc(C(=O)N3CCSCC3)c2)n1` | -52.23 |
| 9 | `CC(=O)NC[C@]1(O)CCN(C(=O)c2ccc3c(c2)CCC3)C[C@H]1O` | -13.02 |
| 10 | `c1cnc(-c2nn3c(CN4CCCCC4)nnc3s2)cn1` | -25.93 |
| 11 | `[H][C@@]12CCN(Cc3ccco3)C[C@@]1([H])O[C@@H](c1ccnc(C)n1)C2` | 45.29 |
| 12 | `Cc1cnn(CC(C)NCc2nc(-c3cccs3)no2)c1` (stereo not drawn) | 9.827 |
| 13 | `O=C(CN1CC(c2nc(-c3ccco3)no2)C1)NCc1ccc(F)cc1.O=C(O)C(=O)O` | 7.563 |
| 14 | `CC(CO)(NC(=O)Nc1nnc(C(F)F)s1)C1CC1` (stereo not drawn) | -21.21 |
| 15 | `CN(C)C(=O)C1CCN(C(=O)c2c[nH]c3cc(Cl)ccc23)CC1` | 4.081 |
| 16 | `CC[C@@H]1N(Cc2ccc(F)cc2)CCC[C@]12CCC(=O)N2C.O=C(O)C(F)(F)F` | -14.8 |
| 17 | `COc1ccccc1CNC1(CCO)CCOCC1` | -41.82 |
| 18 | `CCc1sc(C(=O)NC2CC2)cc1C` | -14.35 |
| 19 | `CN1C(=O)C2(CCNCC2)c2cc(F)ccc21.Cl` | -30.67 |

Some entries from above, unchanged:

structure,Percent Effect
CC[C@@H]1N(Cc2ccc(F)cc2)CCC[C@]12CCC(=O)N2C.O=C(O)C(F)(F)F,-14.8
COc1ccc(C)cc1CCNS(=O)(=O)c1ccc2c(c1)CCC(=O)N2,-47.2